Source: US10034476B2, “Insecticidal phenyl-or pyridyl-piperdine compounds” (Syngenta Participations AG, priority 2008, dated 2018)
Some results were stated once for a whole list of compounds, not compound by compound.

Assays:
Format in all cases: in vivo
Diabrotica balteata = Diabrotica balteata (corn root worm) artificial diet test; settings: 200 ppm (concentration in well 18 ppm), L2 larvae, 5 days, larval mortality, growth regulation
Experimental: Diabrotica Balteata (Corn Root Worm): A 24-well microtiter plate (MTP) with artificial diet was treated with test solutions at an application rate of 200 ppm (concentration in well 18 ppm) by pipetting. After drying, the MTP's were infested with larvae (L2) (6-10 per well). After an incubation period of 5 days, samples were checked for larval mortality, and growth regulation.

Plutella xylostella = Plutella xylostella (diamond back moth) artificial diet test; settings: 200 ppm (concentration in well 18 ppm), L2 larvae, 6 days, larval mortality, growth regulation
Experimental: Plutella xylostella (Diamond Back Moth): 24-well microtiter plate (MTP) with artificial diet was treated with test solutions at an application rate of 200 ppm (concentration in well 18 ppm) by pipetting. After drying, the MTP's were infested with L2 larvae (7-12 per well). After an incubation period of 6 days, samples were checked for larval mortality and growth regulation.

Spodoptera littoralis = Spodoptera littoralis (Egyptian cotton leafworm) cotton leaf disc spray test; settings: 200 ppm spray on cotton leaf discs, L1 larvae, 3 DAT; mortality, feeding behavior, growth regulation
From the text: Spodoptera littoralis (Egyptian Cotton Leafworm) Cotton leaf discs were placed on agar in a 24-well microtiter plate and sprayed with test solutions at an application rate of 200 ppm. After drying, the leaf discs were infested with 5 L1 larvae. The samples were checked for mortality, feeding behavior, and growth regulation 3 days after treatment (DAT).

Heliothis virescens = Heliothis virescens (tobacco budworm) egg/artificial diet test; settings: 200 ppm (concentration in well 18 ppm), eggs 0-24 h old on artificial diet, 4 days; egg mortality, larval mortality, growth regulation
Experimental: Heliothis virescens (Tobacco Budworm): Eggs (0-24 h old) were placed in 24-well microtiter plate on artificial diet and treated with test solutions at an application rate of 200 ppm (concentration in well 18 ppm) by pipetting. After an incubation period of 4 days, samples were checked for egg mortality, larval mortality, and growth regulation.

O=C(Nc1ccc(OC(F)(F)F)cc1C1CCN(Cc2ccc(-c3ccc(F)cc3)cc2)CC1)c1ccnc(Cl)c1 [Compound A6]
at least 80%: control of Diabrotica balteata (Diabrotica balteata) | control of Plutella xylostella (Plutella xylostella) | control of Spodoptera littoralis (Spodoptera littoralis) | control of Heliothis virescens (Heliothis virescens)

O=C(Nc1ccc(C(F)F)nc1C1CCN(Cc2ccc(-c3ccc(F)cc3)cc2)CC1)c1cc(Cl)nc(Cl)c1 [Compound C8]
at least 80%: control of Diabrotica balteata (Diabrotica balteata) | control of Plutella xylostella (Plutella xylostella) | control of Spodoptera littoralis (Spodoptera littoralis) | control of Heliothis virescens (Heliothis virescens)

N#Cc1ccc(-c2ccc(CN3CCC(c4cc(C(F)(F)F)ccc4NC(=O)c4ccnc(Cl)c4)CC3)cc2)cc1 [Compound A43]
at least 80%: control of Diabrotica balteata (Diabrotica balteata) | control of Plutella xylostella (Plutella xylostella) | control of Spodoptera littoralis (Spodoptera littoralis) | control of Heliothis virescens (Heliothis virescens)

O=C(Nc1ccc(C(F)(F)F)nc1C1CCN(Cc2ccc(-c3ccc(C(F)(F)F)cc3)cc2)CC1)c1ccnc(Cl)c1 [Compound C33]
at least 80%: control of Diabrotica balteata (Diabrotica balteata) | control of Plutella xylostella (Plutella xylostella) | control of Spodoptera littoralis (Spodoptera littoralis)

O=C(Nc1ccc(C(F)(F)F)nc1C1CC[N+]([O-])(Cc2ccc(-c3ccc(Cl)cc3)cc2)CC1)c1ccnc(Cl)c1 (centres unmarked) [Compound D21]
at least 80%: control of Diabrotica balteata (Diabrotica balteata) | control of Plutella xylostella (Plutella xylostella) | control of Spodoptera littoralis (Spodoptera littoralis) | control of Heliothis virescens (Heliothis virescens)

C=Cc1cc(C2CC[N+]([O-])(Cc3ccc(-c4ccc(F)cc4)cc3)CC2)c(NC(=O)c2ccnc(Cl)c2)cc1F (centres unmarked) [Compound B20]
at least 80%: control of Diabrotica balteata (Diabrotica balteata) | control of Plutella xylostella (Plutella xylostella) | control of Spodoptera littoralis (Spodoptera littoralis) | control of Heliothis virescens (Heliothis virescens)

O=C(Nc1cc(F)c(C(F)(F)F)cc1C1CCN(Cc2ccc(-c3ccc(F)cc3)cc2)CC1)c1ccnc(Cl)c1 [Compound A20]
at least 80%: control of Diabrotica balteata (Diabrotica balteata) | control of Plutella xylostella (Plutella xylostella) | control of Spodoptera littoralis (Spodoptera littoralis) | control of Heliothis virescens (Heliothis virescens)

Cc1ccc(-c2ccc(CN3CCC(c4nc(C(F)(F)F)ccc4NC(=O)c4ccnc(Cl)c4)CC3)cc2)cc1 [Compound C29]
at least 80%: control of Diabrotica balteata (Diabrotica balteata) | control of Plutella xylostella (Plutella xylostella) | control of Spodoptera littoralis (Spodoptera littoralis) | control of Heliothis virescens (Heliothis virescens)

O=C(Nc1cc(F)c(Cl)nc1C1CC[N+]([O-])(Cc2ccc(-c3ccc(F)cc3)cc2)CC1)c1ccnc(Cl)c1 (centres unmarked) [Compound D8]
at least 80%: control of Diabrotica balteata (Diabrotica balteata) | control of Plutella xylostella (Plutella xylostella) | control of Spodoptera littoralis (Spodoptera littoralis) | control of Heliothis virescens (Heliothis virescens)

O=C(Nc1ccc(OC(F)(F)F)cc1C1CC[N+]([O-])(Cc2ccc(-c3ccc(F)cc3)cc2)CC1)c1ccnc(Cl)c1 (centres unmarked) [Compound B5]
at least 80%: control of Diabrotica balteata (Diabrotica balteata) | control of Plutella xylostella (Plutella xylostella) | control of Spodoptera littoralis (Spodoptera littoralis) | control of Heliothis virescens (Heliothis virescens)

COc1ccc(-c2ccc(CN3CCC(c4cc(C(F)(F)F)ccc4NC(=O)c4ccnc(Cl)c4)CC3)cc2)cc1 [Compound A36]
at least 80%: control of Plutella xylostella (Plutella xylostella) | control of Spodoptera littoralis (Spodoptera littoralis) | control of Heliothis virescens (Heliothis virescens)

O=C(Nc1c(C2CC[N+]([O-])(Cc3ccc(-c4ccc(F)cc4)cc3)CC2)cc(Br)c(F)c1Br)c1ccnc(Cl)c1 (centres unmarked) [Compound B16]
at least 80%: control of Diabrotica balteata (Diabrotica balteata) | control of Plutella xylostella (Plutella xylostella) | control of Spodoptera littoralis (Spodoptera littoralis) | control of Heliothis virescens (Heliothis virescens)

O=C(Nc1ccc(OC(F)F)cc1C1CC[N+]([O-])(Cc2ccc(-c3ccc(F)cc3)cc2)CC1)c1cc(Cl)nc(Cl)c1 (centres unmarked) [Compound B9]
at least 80%: control of Diabrotica balteata (Diabrotica balteata) | control of Plutella xylostella (Plutella xylostella) | control of Spodoptera littoralis (Spodoptera littoralis) | control of Heliothis virescens (Heliothis virescens)

O=C(Nc1ccc(F)c(F)c1C1CC[N+]([O-])(Cc2ccc(-c3ccc(F)cc3)cc2)CC1)c1ccnc(Cl)c1 (centres unmarked) [Compound G7]
at least 80%: control of Diabrotica balteata (Diabrotica balteata) | control of Plutella xylostella (Plutella xylostella) | control of Spodoptera littoralis (Spodoptera littoralis) | control of Heliothis virescens (Heliothis virescens)

O=C(Nc1c(F)cc(C(F)(F)F)nc1C1CC[N+]([O-])(Cc2ccc(-c3ccc(F)cc3)cc2)CC1)c1ccnc(Cl)c1 (centres unmarked) [Compound D27]
at least 80%: control of Plutella xylostella (Plutella xylostella) | control of Spodoptera littoralis (Spodoptera littoralis) | control of Heliothis virescens (Heliothis virescens)

O=C(Nc1ccc(F)cc1C1CCN(Cc2ccc(-c3ccc(Br)cc3)cc2)CC1)c1ccnc(Cl)c1 [Compound A29]
at least 80%: control of Diabrotica balteata (Diabrotica balteata) | control of Plutella xylostella (Plutella xylostella) | control of Spodoptera littoralis (Spodoptera littoralis) | control of Heliothis virescens (Heliothis virescens)

O=C(Nc1ccc(Cl)c(F)c1C1CC[N+]([O-])(Cc2ccc(-c3ccc(F)cc3)cc2)CC1)c1ccnc(Cl)c1 (centres unmarked) [Compound G4]
at least 80%: control of Diabrotica balteata (Diabrotica balteata) | control of Plutella xylostella (Plutella xylostella) | control of Spodoptera littoralis (Spodoptera littoralis) | control of Heliothis virescens (Heliothis virescens)

O=C(Nc1cccc(F)c1C1CCN(Cc2ccc(-c3ccc(F)cc3)cc2)CC1)c1ccnc(Cl)c1 [Compound E4]
at least 80%: control of Diabrotica balteata (Diabrotica balteata) | control of Plutella xylostella (Plutella xylostella) | control of Spodoptera littoralis (Spodoptera littoralis) | control of Heliothis virescens (Heliothis virescens)

O=C(Nc1cc(C(F)(F)F)c(Cl)nc1C1CC[N+]([O-])(Cc2ccc(-c3ccc(F)cc3)cc2)CC1)c1ccnc(Cl)c1 (centres unmarked) [Compound D12]
at least 80%: control of Diabrotica balteata (Diabrotica balteata) | control of Plutella xylostella (Plutella xylostella) | control of Spodoptera littoralis (Spodoptera littoralis) | control of Heliothis virescens (Heliothis virescens)

O=C(Nc1ccc(C2CC2)c(F)c1C1CC[N+]([O-])(Cc2ccc(-c3ccc(F)cc3)cc2)CC1)c1ccnc(Cl)c1 (centres unmarked) [Compound G9]
at least 80%: control of Plutella xylostella (Plutella xylostella) | control of Spodoptera littoralis (Spodoptera littoralis) | control of Heliothis virescens (Heliothis virescens)

Cc1ccc(C2CCN(Cc3ccc(-c4ccc(F)cc4)cc3)CC2)c(NC(=O)c2ccnc(Cl)c2)c1 [Compound A1]
at least 80%: control of Diabrotica balteata (Diabrotica balteata) | control of Plutella xylostella (Plutella xylostella) | control of Spodoptera littoralis (Spodoptera littoralis)

O=C(Nc1ccc(C(F)(F)F)cc1C1CC[N+]([O-])(Cc2ccc(-c3ccc(C(F)(F)F)cc3)cc2)CC1)c1ccnc(Cl)c1 (centres unmarked) [Compound B21]
at least 80%: control of Diabrotica balteata (Diabrotica balteata) | control of Spodoptera littoralis (Spodoptera littoralis)

O=C(Nc1ccc(C(F)(F)F)cc1C1CC[N+]([O-])(Cc2ccc(-c3ccc(F)cc3)cc2)CC1)c1cc(F)ncc1Cl (centres unmarked) [Compound B28]
at least 80%: control of Plutella xylostella (Plutella xylostella) | control of Spodoptera littoralis (Spodoptera littoralis) | control of Heliothis virescens (Heliothis virescens)

COc1ccc(NC(=O)c2ccnc(Cl)c2)c(C2CC[N+]([O-])(Cc3ccc(-c4ccc(F)cc4)cc3)CC2)n1 (centres unmarked) [Compound D15]
at least 80%: control of Plutella xylostella (Plutella xylostella) | control of Spodoptera littoralis (Spodoptera littoralis)

O=C(Nc1c(C2CC[N+]([O-])(Cc3ccc(-c4ccc(F)cc4)cc3)CC2)cc(F)c(F)c1F)c1ccnc(Cl)c1 (centres unmarked) [Compound B3]
at least 80%: control of Spodoptera littoralis (Spodoptera littoralis)

O=C(Nc1cc(Cl)ccc1C1CC[N+]([O-])(Cc2ccc(-c3ccc(F)cc3)cc2)CC1)c1ccnc(Cl)c1 (centres unmarked) [Compound B19]
at least 80%: control of Plutella xylostella (Plutella xylostella) | control of Spodoptera littoralis (Spodoptera littoralis)

O=C(Nc1cc(Cl)c(Cl)nc1C1CCN(Cc2ccc(-c3ccc(F)cc3)cc2)CC1)c1ccnc(Cl)c1 [Compound M3]
at least 80%: control of Diabrotica balteata (Diabrotica balteata)

O=C(Nc1ccc(F)cc1C1CCN(Cc2ccc(-c3ccc(F)cc3)cc2)CC1)c1ccnc(F)c1 [Compound A21]
at least 80%: control of Spodoptera littoralis (Spodoptera littoralis) | control of Heliothis virescens (Heliothis virescens)

O=C(Nc1ccc(C(F)(C(F)(F)F)C(F)(F)F)cc1C1CC[N+]([O-])(Cc2ccc(-c3ccc(F)cc3)cc2)CC1)c1ccnc(Cl)c1 (centres unmarked) [Compound B15]
at least 80%: control of Diabrotica balteata (Diabrotica balteata) | control of Spodoptera littoralis (Spodoptera littoralis) | control of Heliothis virescens (Heliothis virescens)

COc1ccc(-c2ccc(CN3CCC(c4nc(C(F)(F)F)ccc4NC(=O)c4ccnc(Cl)c4)CC3)cc2)cc1 [Compound C35]
at least 80%: control of Plutella xylostella (Plutella xylostella) | control of Spodoptera littoralis (Spodoptera littoralis) | control of Heliothis virescens (Heliothis virescens)

O=C(Nc1cc(Cl)c(Cl)nc1C1CCN(Cc2ccc(-c3ccc(F)cc3)cc2)CC1)c1ccnc(Cl)c1 [Compound M2]
at least 80%: control of Plutella xylostella (Plutella xylostella) | control of Spodoptera littoralis (Spodoptera littoralis) | control of Heliothis virescens (Heliothis virescens)
